Numbering of substitutions follows the chain as printed. Results are given in words; binding and its absence hold for the method and conditions named. Binding seen in cells or lysates may run through a third protein. Some results given as binding are weak or reduced against the parent protein; the word gives no strength. Where a sequence is shown, tags or fusion partners need not be part of it.

Chains of the proteins cited; added tags and fusions are not shown.
UniProt Q93009: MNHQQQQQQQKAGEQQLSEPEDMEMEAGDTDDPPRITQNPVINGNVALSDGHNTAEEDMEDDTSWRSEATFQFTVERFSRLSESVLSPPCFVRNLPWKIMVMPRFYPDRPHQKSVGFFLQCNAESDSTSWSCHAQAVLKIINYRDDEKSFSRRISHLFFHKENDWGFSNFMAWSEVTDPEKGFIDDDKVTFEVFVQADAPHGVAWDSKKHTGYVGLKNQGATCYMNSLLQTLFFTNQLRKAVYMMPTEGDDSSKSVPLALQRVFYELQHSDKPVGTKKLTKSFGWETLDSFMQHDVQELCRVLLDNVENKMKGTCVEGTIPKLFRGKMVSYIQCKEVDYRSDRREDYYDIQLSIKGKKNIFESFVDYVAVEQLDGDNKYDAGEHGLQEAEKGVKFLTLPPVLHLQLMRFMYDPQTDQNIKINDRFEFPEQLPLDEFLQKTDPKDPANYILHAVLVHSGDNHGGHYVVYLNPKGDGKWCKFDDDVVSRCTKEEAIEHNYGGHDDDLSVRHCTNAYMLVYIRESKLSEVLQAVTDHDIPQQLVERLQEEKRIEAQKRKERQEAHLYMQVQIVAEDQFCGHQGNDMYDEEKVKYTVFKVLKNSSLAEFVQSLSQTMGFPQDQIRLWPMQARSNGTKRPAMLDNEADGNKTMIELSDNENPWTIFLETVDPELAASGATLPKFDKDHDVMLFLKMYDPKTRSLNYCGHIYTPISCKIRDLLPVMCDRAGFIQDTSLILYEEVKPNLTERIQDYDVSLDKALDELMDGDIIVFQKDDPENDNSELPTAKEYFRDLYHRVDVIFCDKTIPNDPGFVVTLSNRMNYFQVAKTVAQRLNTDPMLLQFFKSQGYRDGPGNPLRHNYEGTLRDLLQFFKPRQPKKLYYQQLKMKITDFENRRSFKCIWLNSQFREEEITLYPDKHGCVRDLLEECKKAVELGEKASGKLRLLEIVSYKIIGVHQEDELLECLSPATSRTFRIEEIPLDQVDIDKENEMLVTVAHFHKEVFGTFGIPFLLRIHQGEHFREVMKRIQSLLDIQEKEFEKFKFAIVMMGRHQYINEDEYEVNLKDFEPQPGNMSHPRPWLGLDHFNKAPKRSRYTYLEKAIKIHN

For one substance, binding results are on record in publication PMC12607013.

Assay [1] concerns the target T1, FLAG-tagged full-length OTUD4 (ovarian tumor family deubiquitinase 4), WT (human) (UniProt Q01804).
T1 sequence: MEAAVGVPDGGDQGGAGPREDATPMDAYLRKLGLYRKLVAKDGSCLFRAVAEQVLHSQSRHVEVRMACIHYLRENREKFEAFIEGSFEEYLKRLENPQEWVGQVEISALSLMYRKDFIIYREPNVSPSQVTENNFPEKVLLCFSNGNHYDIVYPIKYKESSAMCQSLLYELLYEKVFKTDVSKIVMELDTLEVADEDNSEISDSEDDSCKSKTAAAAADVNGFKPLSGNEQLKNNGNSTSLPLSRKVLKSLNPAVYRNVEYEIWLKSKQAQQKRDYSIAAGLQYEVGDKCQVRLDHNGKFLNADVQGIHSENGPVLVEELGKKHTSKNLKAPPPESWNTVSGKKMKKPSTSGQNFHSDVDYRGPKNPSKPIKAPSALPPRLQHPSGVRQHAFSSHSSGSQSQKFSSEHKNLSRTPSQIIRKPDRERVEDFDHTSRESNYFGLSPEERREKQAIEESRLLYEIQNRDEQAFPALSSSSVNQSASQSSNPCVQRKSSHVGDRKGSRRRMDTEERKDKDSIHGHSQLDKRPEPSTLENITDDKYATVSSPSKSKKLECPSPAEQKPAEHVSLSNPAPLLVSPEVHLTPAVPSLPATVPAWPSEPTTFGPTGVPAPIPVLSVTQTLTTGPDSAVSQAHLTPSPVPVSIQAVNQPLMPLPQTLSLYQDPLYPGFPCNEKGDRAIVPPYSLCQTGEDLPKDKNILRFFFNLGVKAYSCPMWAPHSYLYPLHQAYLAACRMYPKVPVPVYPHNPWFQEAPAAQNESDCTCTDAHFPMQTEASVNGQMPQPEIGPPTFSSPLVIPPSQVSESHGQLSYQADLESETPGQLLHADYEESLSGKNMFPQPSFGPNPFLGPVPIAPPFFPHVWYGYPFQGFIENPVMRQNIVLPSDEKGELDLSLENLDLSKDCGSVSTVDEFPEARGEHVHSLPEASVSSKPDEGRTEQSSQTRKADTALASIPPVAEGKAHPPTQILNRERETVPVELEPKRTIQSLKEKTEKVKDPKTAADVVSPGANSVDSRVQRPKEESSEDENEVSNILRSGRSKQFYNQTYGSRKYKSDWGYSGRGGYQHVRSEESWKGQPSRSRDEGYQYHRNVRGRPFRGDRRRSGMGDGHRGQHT
The assay can be described thus: co-IP; HEK293T cells transfected with the indicated plasmids, 48 to 72 h; clarified lysates incubated overnight at 4 °C with anti-FLAG M2-agarose or anti-HA-agarose beads; Western blot. (In general: A western blot detects proteins with antibodies after separation by electrophoresis.)

Assay [2] has as its target T2, FLAG-tagged full-length OTUD4 C45A (active-site mutant) (human) (UniProt Q01804).
T2 sequence: T1 sequence with C45A
The description is as above.

As to “USP7 (from UniProt Q93009 1-1102) (enzyme)”, the binding result in assay [1] and in assay [2] was “binds” each time.
